Chains of the proteins cited; added tags and fusions are not shown. Lines headed by an entry give the natural chain unless they say otherwise; changes in a name come on top.
UniProt Q86SX6: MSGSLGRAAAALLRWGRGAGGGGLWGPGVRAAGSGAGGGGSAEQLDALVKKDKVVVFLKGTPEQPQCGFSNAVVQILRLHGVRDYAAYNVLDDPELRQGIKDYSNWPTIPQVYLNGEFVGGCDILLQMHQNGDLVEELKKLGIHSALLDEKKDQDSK
UniProt Q9BRX5: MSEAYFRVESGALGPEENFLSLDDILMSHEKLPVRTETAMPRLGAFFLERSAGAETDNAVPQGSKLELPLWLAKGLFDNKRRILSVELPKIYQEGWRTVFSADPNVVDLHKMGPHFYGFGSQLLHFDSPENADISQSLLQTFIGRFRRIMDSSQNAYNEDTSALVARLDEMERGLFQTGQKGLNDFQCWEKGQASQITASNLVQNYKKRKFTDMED
UniProt P46926: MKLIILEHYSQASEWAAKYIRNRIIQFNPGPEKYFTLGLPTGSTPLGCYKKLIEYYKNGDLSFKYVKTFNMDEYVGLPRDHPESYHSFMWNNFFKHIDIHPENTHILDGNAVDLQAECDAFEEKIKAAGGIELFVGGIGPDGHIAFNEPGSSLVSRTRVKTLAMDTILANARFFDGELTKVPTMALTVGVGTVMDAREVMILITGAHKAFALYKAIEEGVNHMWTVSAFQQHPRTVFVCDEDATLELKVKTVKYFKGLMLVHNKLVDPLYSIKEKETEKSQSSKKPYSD
UniProt Q9UKD1: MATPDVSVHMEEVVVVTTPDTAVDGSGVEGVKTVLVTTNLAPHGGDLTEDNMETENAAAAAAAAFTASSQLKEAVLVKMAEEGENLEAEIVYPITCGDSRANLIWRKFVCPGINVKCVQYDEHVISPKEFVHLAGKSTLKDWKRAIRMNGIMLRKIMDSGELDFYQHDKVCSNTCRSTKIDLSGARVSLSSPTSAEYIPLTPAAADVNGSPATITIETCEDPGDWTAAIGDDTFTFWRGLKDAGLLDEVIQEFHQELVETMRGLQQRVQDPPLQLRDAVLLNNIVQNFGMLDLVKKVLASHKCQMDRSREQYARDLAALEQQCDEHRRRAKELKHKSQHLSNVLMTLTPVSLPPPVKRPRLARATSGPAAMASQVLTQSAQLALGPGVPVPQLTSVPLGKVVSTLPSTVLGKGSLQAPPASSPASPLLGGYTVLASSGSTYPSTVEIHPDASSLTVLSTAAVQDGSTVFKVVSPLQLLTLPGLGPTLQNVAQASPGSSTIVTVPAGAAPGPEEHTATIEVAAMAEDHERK
UniProt Q9HCN4, whole entry, looked up: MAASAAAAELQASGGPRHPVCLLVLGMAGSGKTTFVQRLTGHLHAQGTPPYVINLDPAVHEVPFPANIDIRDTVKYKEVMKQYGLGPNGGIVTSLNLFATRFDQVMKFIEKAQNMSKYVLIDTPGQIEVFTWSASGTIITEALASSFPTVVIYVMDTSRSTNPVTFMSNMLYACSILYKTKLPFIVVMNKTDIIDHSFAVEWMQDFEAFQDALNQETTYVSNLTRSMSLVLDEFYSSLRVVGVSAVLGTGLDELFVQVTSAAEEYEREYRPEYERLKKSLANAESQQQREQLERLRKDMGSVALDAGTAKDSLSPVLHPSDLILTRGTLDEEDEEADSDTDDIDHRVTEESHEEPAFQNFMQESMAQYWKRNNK
UniProt B7ZAQ6: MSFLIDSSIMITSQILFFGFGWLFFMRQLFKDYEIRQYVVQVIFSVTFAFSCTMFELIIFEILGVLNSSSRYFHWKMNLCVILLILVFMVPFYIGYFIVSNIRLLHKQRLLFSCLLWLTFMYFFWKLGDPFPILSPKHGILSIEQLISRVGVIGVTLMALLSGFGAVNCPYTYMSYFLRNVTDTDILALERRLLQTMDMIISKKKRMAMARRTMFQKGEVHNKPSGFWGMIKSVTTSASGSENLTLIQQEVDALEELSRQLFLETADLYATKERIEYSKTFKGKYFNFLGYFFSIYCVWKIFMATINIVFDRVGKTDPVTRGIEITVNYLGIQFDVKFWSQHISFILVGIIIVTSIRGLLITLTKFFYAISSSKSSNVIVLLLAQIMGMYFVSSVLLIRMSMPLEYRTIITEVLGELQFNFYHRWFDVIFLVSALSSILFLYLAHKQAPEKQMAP
UniProt Q9Y248: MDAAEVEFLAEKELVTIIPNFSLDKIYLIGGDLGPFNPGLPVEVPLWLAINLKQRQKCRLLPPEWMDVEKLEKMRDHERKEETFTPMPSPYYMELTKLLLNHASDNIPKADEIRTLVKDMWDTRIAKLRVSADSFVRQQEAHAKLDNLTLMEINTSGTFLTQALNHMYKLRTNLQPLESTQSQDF
UniProt Q8TBA6: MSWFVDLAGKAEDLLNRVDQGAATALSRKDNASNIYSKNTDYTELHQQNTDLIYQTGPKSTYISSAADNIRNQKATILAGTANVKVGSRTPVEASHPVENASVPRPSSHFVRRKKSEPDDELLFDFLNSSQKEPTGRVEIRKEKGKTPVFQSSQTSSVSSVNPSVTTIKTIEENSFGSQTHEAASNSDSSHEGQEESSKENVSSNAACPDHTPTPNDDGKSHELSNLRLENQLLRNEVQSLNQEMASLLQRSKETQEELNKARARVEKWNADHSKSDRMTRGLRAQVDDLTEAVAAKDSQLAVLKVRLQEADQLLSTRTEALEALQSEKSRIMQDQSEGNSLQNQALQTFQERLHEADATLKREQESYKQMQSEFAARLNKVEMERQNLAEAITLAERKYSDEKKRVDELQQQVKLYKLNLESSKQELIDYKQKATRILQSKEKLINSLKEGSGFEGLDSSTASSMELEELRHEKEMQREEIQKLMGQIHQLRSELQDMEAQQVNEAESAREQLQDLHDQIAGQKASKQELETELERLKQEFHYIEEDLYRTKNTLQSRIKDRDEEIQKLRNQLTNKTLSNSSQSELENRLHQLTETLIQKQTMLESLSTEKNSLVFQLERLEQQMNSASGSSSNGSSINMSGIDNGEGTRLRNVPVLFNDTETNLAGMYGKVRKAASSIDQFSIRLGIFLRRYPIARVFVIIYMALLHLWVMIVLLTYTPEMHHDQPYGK
UniProt Q9Y223: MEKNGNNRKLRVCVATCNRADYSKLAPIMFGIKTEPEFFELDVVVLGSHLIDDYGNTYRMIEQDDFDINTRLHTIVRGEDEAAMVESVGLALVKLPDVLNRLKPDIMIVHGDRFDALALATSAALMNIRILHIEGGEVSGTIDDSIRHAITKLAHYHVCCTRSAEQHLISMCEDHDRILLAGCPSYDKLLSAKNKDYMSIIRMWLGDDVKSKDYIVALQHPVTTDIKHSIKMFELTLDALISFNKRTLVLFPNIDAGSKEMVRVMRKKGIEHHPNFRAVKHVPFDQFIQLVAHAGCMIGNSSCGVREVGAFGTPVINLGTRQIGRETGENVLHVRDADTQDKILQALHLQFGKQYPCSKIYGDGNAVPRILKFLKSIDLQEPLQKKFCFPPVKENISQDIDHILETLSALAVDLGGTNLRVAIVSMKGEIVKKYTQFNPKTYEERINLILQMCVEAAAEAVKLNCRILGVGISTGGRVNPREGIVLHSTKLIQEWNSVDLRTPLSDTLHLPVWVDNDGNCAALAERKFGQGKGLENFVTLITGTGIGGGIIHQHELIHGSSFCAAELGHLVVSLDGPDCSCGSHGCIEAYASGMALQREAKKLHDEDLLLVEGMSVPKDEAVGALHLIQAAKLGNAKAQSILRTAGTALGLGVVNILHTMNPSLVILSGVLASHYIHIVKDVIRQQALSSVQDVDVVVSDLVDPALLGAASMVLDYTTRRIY
UniProt Q96EK6: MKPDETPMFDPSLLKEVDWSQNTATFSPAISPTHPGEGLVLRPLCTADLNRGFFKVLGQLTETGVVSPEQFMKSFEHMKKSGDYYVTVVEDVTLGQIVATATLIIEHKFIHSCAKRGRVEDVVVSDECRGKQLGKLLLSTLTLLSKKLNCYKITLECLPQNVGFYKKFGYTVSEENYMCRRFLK
UniProt Q9HC38: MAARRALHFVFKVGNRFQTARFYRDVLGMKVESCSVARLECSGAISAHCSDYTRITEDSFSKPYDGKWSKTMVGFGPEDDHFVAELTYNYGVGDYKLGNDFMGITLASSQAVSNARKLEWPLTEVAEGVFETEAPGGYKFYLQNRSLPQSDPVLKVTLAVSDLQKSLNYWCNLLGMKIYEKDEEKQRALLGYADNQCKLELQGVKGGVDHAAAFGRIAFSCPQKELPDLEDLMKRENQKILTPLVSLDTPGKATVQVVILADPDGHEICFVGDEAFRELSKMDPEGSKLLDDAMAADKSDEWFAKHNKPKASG
UniProt Q9UBQ7: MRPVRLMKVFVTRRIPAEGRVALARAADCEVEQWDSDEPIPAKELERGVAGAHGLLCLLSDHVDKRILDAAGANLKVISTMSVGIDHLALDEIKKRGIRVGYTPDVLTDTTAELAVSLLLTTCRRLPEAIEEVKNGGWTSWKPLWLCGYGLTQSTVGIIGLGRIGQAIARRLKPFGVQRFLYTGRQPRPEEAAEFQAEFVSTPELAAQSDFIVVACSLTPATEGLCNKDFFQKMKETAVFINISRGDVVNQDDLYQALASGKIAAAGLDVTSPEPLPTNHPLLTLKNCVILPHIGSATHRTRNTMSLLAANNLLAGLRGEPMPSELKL
UniProt Q9UHW5, whole entry, looked up: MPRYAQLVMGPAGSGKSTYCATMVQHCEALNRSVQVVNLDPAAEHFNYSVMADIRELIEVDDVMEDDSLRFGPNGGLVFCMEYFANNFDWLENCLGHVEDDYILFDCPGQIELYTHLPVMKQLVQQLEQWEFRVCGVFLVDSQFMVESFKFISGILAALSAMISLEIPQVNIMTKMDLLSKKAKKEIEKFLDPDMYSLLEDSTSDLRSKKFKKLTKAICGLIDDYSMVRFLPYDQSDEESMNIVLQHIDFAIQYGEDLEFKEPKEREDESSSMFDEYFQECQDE
UniProt Q9NS18: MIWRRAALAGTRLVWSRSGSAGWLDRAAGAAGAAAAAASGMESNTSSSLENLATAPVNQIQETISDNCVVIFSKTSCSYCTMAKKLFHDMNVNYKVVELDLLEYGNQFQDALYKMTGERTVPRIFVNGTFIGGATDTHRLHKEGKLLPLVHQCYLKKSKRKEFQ
UniProt Q9P2T1: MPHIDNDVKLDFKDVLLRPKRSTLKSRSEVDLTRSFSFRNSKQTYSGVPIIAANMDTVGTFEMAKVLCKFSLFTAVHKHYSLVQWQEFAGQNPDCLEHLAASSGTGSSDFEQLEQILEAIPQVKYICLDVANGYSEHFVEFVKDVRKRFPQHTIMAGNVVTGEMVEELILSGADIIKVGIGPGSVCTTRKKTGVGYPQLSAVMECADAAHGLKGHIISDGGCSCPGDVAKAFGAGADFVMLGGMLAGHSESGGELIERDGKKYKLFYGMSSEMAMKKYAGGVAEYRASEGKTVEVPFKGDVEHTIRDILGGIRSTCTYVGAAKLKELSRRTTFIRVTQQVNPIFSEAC
UniProt Q12849: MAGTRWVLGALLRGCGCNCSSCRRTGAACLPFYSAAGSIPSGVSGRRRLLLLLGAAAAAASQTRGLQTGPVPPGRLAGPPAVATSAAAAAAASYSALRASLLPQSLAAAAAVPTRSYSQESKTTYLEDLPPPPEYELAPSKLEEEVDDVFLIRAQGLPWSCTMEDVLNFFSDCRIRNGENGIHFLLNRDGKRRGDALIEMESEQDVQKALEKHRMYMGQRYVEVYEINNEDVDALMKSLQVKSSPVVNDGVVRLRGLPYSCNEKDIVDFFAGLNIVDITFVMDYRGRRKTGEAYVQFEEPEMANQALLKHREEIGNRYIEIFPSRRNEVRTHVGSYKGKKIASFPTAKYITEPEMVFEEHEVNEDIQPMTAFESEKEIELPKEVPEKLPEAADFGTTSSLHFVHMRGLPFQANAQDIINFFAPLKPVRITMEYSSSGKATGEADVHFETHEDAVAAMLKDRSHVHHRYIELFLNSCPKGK
UniProt P62993, whole entry, looked up: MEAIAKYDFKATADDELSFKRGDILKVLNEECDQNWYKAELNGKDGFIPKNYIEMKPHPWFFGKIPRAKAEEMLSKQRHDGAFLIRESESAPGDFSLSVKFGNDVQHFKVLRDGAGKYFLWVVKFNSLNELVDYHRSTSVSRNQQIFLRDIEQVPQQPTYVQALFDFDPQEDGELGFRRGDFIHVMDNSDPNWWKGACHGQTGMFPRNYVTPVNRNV
UniProt O14908: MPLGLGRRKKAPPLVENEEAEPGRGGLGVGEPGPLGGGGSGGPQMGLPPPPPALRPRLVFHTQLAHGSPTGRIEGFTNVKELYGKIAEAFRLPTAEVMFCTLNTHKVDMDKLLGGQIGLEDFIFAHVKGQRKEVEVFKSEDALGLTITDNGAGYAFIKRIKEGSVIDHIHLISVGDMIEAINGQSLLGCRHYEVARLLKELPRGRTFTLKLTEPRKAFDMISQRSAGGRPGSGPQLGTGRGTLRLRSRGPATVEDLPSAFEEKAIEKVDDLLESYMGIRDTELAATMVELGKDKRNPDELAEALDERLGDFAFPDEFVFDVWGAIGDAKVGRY
UniProt Q9BRT9, whole entry, looked up: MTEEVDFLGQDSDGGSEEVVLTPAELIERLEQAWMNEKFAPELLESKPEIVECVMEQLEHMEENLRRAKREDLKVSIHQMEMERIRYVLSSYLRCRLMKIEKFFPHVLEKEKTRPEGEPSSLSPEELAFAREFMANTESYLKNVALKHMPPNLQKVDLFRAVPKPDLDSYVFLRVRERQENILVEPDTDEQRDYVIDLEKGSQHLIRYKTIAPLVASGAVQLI

Some of the results follow.
What follows are targets tested with CC[C@@H]1C(=O)N(C)c2cnc(Nc3ccc(C(=O)NC4CCN(C)CC4)cc3OC)nc2N1C1CCCC1 (assay: log2 fold change, soluble protein after heating vs DMSO (PISA); higher = thermal stabilisation; K562 cells, 10 uM, 30 min; active = over 0.2 and 3.5 SD of the protein, either way, in both replicates (recomputed)).
Outline: (§1)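 K562 cells (2×10^6 cells/mL) were treated with 10 μM compound for 30 min, and aliquots were heated for 3 min over 48°C-58°C. Pooled aliquots were extracted in PBS with 0.5% NP-40 at 4°C, and the supernatant after 21,000xg for 90 min was measured by TMTpro 16plex LC-MS/MS with channel sums equalised. Reported thermal stability, relative to control samples and from duplicates, is a log2 fold change.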
For GLRX5 (UniProt Q86SX6), the log2 fold change was inactive: -0.04. In the case of GINS3 (UniProt Q9BRX5), the log2 fold change is reported as inactive: -0.065. With GNPDA1 (UniProt P46926) the log2 fold change was inactive: 0.052. For GMEB2 (UniProt Q9UKD1), the log2 fold change was inactive: 0.05. GPN1 isoform 5 (UniProt Q9HCN4) was tested, and the log2 fold change was inactive: -0.02. For GPR89A (UniProt B7ZAQ6), the log2 fold change was inactive: -0.045. In the case of GINS2 (UniProt Q9Y248), the log2 fold change is reported as inactive: -0.011. For GOLGA5 (UniProt Q8TBA6), the log2 fold change was inactive: 0.019. In the case of GNE isoform 2 (UniProt Q9Y223), the log2 fold change is reported as inactive: 0.117. In the case of GNPNAT1 (UniProt Q96EK6), the log2 fold change is reported as inactive: 0.051. In the case of GLOD4 isoform 2 (UniProt Q9HC38), the log2 fold change is reported as inactive: -0.088. With GRHPR (UniProt Q9UBQ7) the log2 fold change was inactive: 0.034. GPN3 isoform 2 (UniProt Q9UHW5) was tested, and the log2 fold change was inactive: 0.08. In the case of GLRX2 isoform 2 (UniProt Q9NS18), the log2 fold change is reported as inactive: -0.015. For GMPR2 isoform 2 (UniProt Q9P2T1), the log2 fold change was inactive: 0.022. With GRSF1 (UniProt Q12849) the log2 fold change was inactive: -0.031. For GRB2 (UniProt P62993), the log2 fold change was inactive: -0.033.

What follows are targets tested with CC[C@@H]1C(=O)N(C)c2cnc(Nc3ccc(C(=O)N[C@H]4CC[C@H](N5CCN(CC6CC6)CC5)CC4)cc3OC)nc2N1C(C)C [volasertib] in the same assay as above.
Outline: as §1
In the case of GPAT3 (UniProt Q53EU6), the log2 fold change is reported as inactive: -0.13. GK (UniProt P32189) was tested, and the log2 fold change was inactive: 0.07. In the case of GLYR1 (UniProt Q49A26), the log2 fold change is reported as inactive: 0.054. With GPATCH11 (UniProt Q8N954) the log2 fold change was inactive: -0.162. For GPKOW (UniProt Q92917), the log2 fold change was inactive: -0.217. GNB1 (UniProt P62873) was tested, and the log2 fold change was inactive: 0.073. GINS1 (UniProt Q14691) was tested, and the log2 fold change was inactive: -0.02. For GNB2 (UniProt P62879), the log2 fold change was inactive: 0.103. With GNAI2 isoform 4 (UniProt P04899) the log2 fold change was inactive: 0.173. In the case of GPALPP1 (UniProt Q8IXQ4), the log2 fold change is reported as inactive: 0.068. GMPPB isoform 2 (UniProt Q9Y5P6) was tested, and the log2 fold change was inactive: 0.01. GNB4 (UniProt Q9HAV0) was tested, and the log2 fold change was inactive: 0.224. For GPHN isoform 2 (UniProt Q9NQX3), the log2 fold change was inactive: 0.045. With GNL1 (UniProt P36915) the log2 fold change was active: -0.229. GSK3A (UniProt P49840) was tested, and the log2 fold change was inactive: 0.002. GPAT4 (UniProt Q86UL3) was tested, and the log2 fold change was inactive: -0.046. With GIPC1 (UniProt O14908) the log2 fold change was inactive: -0.192. In the case of GNB1L (UniProt Q9BYB4), the log2 fold change is reported as inactive: 0.005. With GMNN (UniProt O75496) the log2 fold change was inactive: 0.094. With GMDS (UniProt O60547) the log2 fold change was inactive: 0.017. GPS1 isoform 7 (UniProt Q13098) was tested, and the log2 fold change was inactive: -0.026. In the case of GINS4 (UniProt Q9BRT9), the log2 fold change is reported as inactive: -0.069. GM2A (UniProt P17900) was tested, and the log2 fold change was inactive: -0.064. In the case of GLRX5 (UniProt Q86SX6), the log2 fold change is reported as inactive: -0.039. For GINS3 (UniProt Q9BRX5), the log2 fold change was inactive: -0.139. For GNPDA1 (UniProt P46926), the log2 fold change was inactive: 0.056. With GMEB2 (UniProt Q9UKD1) the log2 fold change was active: -0.282. GPN1 isoform 5 (UniProt Q9HCN4) was tested, and the log2 fold change was inactive: 0.054. In the case of GPR89A (UniProt B7ZAQ6), the log2 fold change is reported as inactive: -0.07. For GINS2 (UniProt Q9Y248), the log2 fold change was inactive: -0.07. For GOLGA5 (UniProt Q8TBA6), the log2 fold change was inactive: -0.08. For GNE isoform 2 (UniProt Q9Y223), the log2 fold change was inactive: 0.184. For GNPNAT1 (UniProt Q96EK6), the log2 fold change was inactive: 0.084. GLOD4 isoform 2 (UniProt Q9HC38) was tested, and the log2 fold change was inactive: -0.05. With GRHPR (UniProt Q9UBQ7) the log2 fold change was inactive: 0.039. With GPN3 isoform 2 (UniProt Q9UHW5) the log2 fold change was inactive: 0.131. In the case of GLRX2 isoform 2 (UniProt Q9NS18), the log2 fold change is reported as inactive: 0.112. GMPR2 isoform 2 (UniProt Q9P2T1) was tested, and the log2 fold change was inactive: 0.082. For GRSF1 (UniProt Q12849), the log2 fold change was inactive: -0.233. For GRB2 (UniProt P62993), the log2 fold change was inactive: 0.034.

The targets below were run with CC[C@H](C)N1C=C(C2=C(C=C(C=C21)C3=CN=C(C=C3)N4CCNCC4)C(=O)NCC5=C(C=C(NC5=O)C)C)C in the same assay as above.
Outline: as §1
GPAT3 (UniProt Q53EU6) was tested, and the log2 fold change was inactive: 0.034. In the case of GK (UniProt P32189), the log2 fold change is reported as inactive: -0.03. In the case of GLYR1 (UniProt Q49A26), the log2 fold change is reported as inactive: 0.026. With GPATCH11 (UniProt Q8N954) the log2 fold change was inactive: -0.017. For GPKOW (UniProt Q92917), the log2 fold change was inactive: 0.101. For GNB1 (UniProt P62873), the log2 fold change was inactive: -0.024. In the case of GINS1 (UniProt Q14691), the log2 fold change is reported as inactive: 0.047. In the case of GNB2 (UniProt P62879), the log2 fold change is reported as inactive: 0.003. With GNAI2 isoform 4 (UniProt P04899) the log2 fold change was inactive: 0.017. GPALPP1 (UniProt Q8IXQ4) was tested, and the log2 fold change was inactive: -0.024. With GMPPB isoform 2 (UniProt Q9Y5P6) the log2 fold change was inactive: -0.002. In the case of GNB4 (UniProt Q9HAV0), the log2 fold change is reported as inactive: -0.102. In the case of GPHN isoform 2 (UniProt Q9NQX3), the log2 fold change is reported as inactive: -0.034. For GNL1 (UniProt P36915), the log2 fold change was inactive: 0.027. GSK3A (UniProt P49840) was tested, and the log2 fold change was inactive: 0.002. GPAT4 (UniProt Q86UL3) was tested, and the log2 fold change was inactive: -0.036. With GIPC1 (UniProt O14908) the log2 fold change was inactive: 0.055. For GNB1L (UniProt Q9BYB4), the log2 fold change was inactive: -0.029. With GMNN (UniProt O75496) the log2 fold change was inactive: 0.008. In the case of GMDS (UniProt O60547), the log2 fold change is reported as inactive: -0.041. In the case of GPS1 isoform 7 (UniProt Q13098), the log2 fold change is reported as inactive: -0.007. GINS4 (UniProt Q9BRT9) was tested, and the log2 fold change was inactive: 0.096. GM2A (UniProt P17900) was tested, and the log2 fold change was inactive: 0.011. With GLRX5 (UniProt Q86SX6) the log2 fold change was inactive: -0.048. GINS3 (UniProt Q9BRX5) was tested, and the log2 fold change was inactive: 0.025. With GNPDA1 (UniProt P46926) the log2 fold change was inactive: -0.048. In the case of GMEB2 (UniProt Q9UKD1), the log2 fold change is reported as inactive: 0.062. GPN1 isoform 5 (UniProt Q9HCN4) was tested, and the log2 fold change was inactive: -0.065. For GPR89A (UniProt B7ZAQ6), the log2 fold change was inactive: -0.01. In the case of GINS2 (UniProt Q9Y248), the log2 fold change is reported as inactive: 0.171. For GOLGA5 (UniProt Q8TBA6), the log2 fold change was inactive: -0.099. GNE isoform 2 (UniProt Q9Y223) was tested, and the log2 fold change was inactive: -0.035. GNPNAT1 (UniProt Q96EK6) was tested, and the log2 fold change was inactive: -0.042. In the case of GLOD4 isoform 2 (UniProt Q9HC38), the log2 fold change is reported as inactive: 0.082. With GRHPR (UniProt Q9UBQ7) the log2 fold change was inactive: 0.006. In the case of GPN3 isoform 2 (UniProt Q9UHW5), the log2 fold change is reported as inactive: -0.041. GLRX2 isoform 2 (UniProt Q9NS18) was tested, and the log2 fold change was inactive: 0.03. In the case of GMPR2 isoform 2 (UniProt Q9P2T1), the log2 fold change is reported as inactive: -0.044. In the case of GRSF1 (UniProt Q12849), the log2 fold change is reported as inactive: 0.046. With GRB2 (UniProt P62993) the log2 fold change was inactive: 0.025.
